Like-named read-outs stand apart in the source and are kept apart here. For part of these data: Not every detail of the peptide structures is certain; ends, links or a residue may be inferred. For part of these data: For at least one compound, name, drawing or mass did not settle the structure.
Key:
CD40 = target: T1, CD40 (Homo sapiens, UniProt P25942); experiment: CD137 paralogue screening by SPR; type: binding; conditions: soluble CD40, up to a concentration of 100 nM
T1 construct: soluble TNF family receptors OX40 and CD40

The chains behind the UniProt entries cited, without tags or fusion partners. Residues count along the entry.
UniProt P25942, 21-193 limits assumed, species assumed: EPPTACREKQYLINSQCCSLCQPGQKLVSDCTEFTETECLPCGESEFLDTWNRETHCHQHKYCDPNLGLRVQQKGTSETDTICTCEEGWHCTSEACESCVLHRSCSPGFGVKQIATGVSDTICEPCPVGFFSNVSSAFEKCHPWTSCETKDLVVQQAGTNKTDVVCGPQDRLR
UniProt Q07011, 24-255: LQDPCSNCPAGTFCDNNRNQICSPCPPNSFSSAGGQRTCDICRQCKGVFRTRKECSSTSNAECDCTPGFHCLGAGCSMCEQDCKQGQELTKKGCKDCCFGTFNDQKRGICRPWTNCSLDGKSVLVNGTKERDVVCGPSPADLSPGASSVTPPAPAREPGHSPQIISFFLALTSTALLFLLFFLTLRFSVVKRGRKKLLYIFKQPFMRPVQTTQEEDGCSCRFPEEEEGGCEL
UniProt Q96NY8, 32-510: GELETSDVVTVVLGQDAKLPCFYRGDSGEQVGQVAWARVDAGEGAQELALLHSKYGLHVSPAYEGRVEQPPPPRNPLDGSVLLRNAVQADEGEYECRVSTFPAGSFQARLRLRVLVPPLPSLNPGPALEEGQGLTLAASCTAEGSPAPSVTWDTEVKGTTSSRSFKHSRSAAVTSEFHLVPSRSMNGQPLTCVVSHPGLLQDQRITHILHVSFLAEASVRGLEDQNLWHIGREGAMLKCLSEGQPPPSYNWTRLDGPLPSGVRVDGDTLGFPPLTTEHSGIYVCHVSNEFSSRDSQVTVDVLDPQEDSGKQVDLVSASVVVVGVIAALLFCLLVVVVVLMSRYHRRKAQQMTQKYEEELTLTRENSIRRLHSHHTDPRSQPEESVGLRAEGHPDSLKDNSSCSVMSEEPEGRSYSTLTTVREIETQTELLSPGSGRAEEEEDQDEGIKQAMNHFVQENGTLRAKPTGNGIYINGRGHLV

[1] = test system: 5484 full-length human plasma membrane proteins and secreted proteins expressed in HEK293 cells; experiment: Retrogenix cell microarray off-target screening; type: binding
Protocol: Retrogenix microarray screening: Retrogenix's cell microarray technology was used to screen for specific off-target binding interactions of a biotinylated BCY11863 known as BCY13582.
Under these conditions, the test peptide was screened for binding against human HEK293 cells, individually expressing 5484 full-length human plasma membrane proteins and secreted proteins.
Each primary hit was re-expressed, along with two control receptors (TGFBR2 and EGFR), and re-tested with 1 μM BCY13582 test peptide, 1 μM BCY13582 test peptide in the presence of 100 μM BCY11863, and other positive and negative control treatments (FIG. 4). […] These were untethered and tethered forms of Nectin-4, and CD137—the primary targets.

OX40 = target: T2, OX40 (Homo sapiens, UniProt P43489); experiment: CD137 paralogue screening by SPR; type: binding; conditions: soluble OX40, up to a concentration of 100 nM
T2 construct: soluble TNF family receptors OX40 and CD40
T2 sequence (P43489 29-214 limits assumed): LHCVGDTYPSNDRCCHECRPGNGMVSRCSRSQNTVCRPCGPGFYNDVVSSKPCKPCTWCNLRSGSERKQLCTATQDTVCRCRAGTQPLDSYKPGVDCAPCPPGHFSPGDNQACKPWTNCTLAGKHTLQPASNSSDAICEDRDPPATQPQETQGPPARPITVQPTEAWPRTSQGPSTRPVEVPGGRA

CD137 = target: T3, CD137 (Homo sapiens, UniProt Q07011+Q96NY8); experiment: CD137 reporter assay co-culture with tumor cells (Promega CD137 luciferase reporter); type: cell-based; conditions: read-out: Arithmetic mean EC50
T3 construct: host or cells: Jurkat reporter cells

| SMILES | Binding by SPR (CD40) | Number of primary hits ([1]; 1 μM test peptide, 5484 proteins, hits include Nectin-4 and CD137) | Specific interactions after re-test ([1]; 1 μM, untethered and tethered forms of Nectin-4, and CD137) | Binding by SPR (OX40) | EC50 (CD137; coculture with HT1376 (human)) [nM] | EC50 (CD137; coculture with MDA-MB-468 (human)) [nM] |
| --- | --- | --- | --- | --- | --- | --- |
| CCCC[C@@H]1NC(=O)[C@H](Cc2ccc(O)cc2)NC(=O)[C@@H]2CCCN2C(=O)[C@H](CC(=O)O)NC(=O)[C@H](C)NC(=O)[C@H](Cc2ccccc2)NC(=O)[C@@H]2CSCCC(=O)N3CN(CN(C3)C(=O)CCSC[C@@H](C(=O)N[C@@H](C)C(N)=O)NC1=O)C(=O)CCSC[C@H](NC(C)=O)C(=O)N[C@@H](CC(C)(C)C)C(=O)N1CCC[C@H]1C(=O)N[C@@H](CCC(=O)O)C(=O)N[C@H](CCCCNC(=O)CCc1cn(CCOCCOCCOCCN(CCOCCOCCOCCC(=O)N[C@H]3CSCCC(=O)N4CN5CN(C4)C(=O)CCSC[C@H](NC(=O)[C@@H](CC(=O)O)NC(=O)[C@H](Cc4cccc6ccccc46)NC(=O)[C@@H]4CCCN4C3=O)C(=O)N[C@@H](CCSC)C(=O)N[C@@H](CCCCNC(=N)N)C(=O)N[C@@H](CC(=O)O)C(=O)N[C@@H](Cc3c[nH]c4ccccc34)C(=O)N[C@@H](CO)C(=O)N[C@@H]([C@@H](C)O)C(=O)N3CCC[C@H]3C(=O)N3C[C@H](O)C[C@H]3C(=O)N[C@@H](Cc3c[nH]c4ccccc34)C(=O)N[C@H](C(N)=O)CSCCC5=O)CCOCCOCCOCCn3cc(CCC(=O)NCCCC[C@H]4NC(=O)[C@H](CCC(=O)O)NC(=O)[C@@H]5CCCN5C(=O)[C@H](CC(C)(C)C)NC(=O)[C@@H](NC(C)=O)CSCCC(=O)N5CN6CN(C5)C(=O)CCSC[C@H](NC(=O)[C@H](Cc5ccc(O)cc5)NC(=O)[C@@H]5CCCN5C4=O)C(=O)N[C@@H](Cc4ccccc4)C(=O)N[C@@H](C)C(=O)N[C@@H](CC(=O)O)C(=O)N4CCC[C@H]4C(=O)N[C@@H](Cc4ccc(O)cc4)C(=O)N[C@@H](CCCC)C(=O)N[C@H](C(=O)N[C@@H](CCCCNC(=O)CCOCCOCCOCCOCCOCCOCCOCCOCCOCCOCCOCCOCCNC(=O)CCCC[C@@H]4SC[C@@H]5NC(=O)N[C@@H]54)C(N)=O)CSCCC6=O)nn3)nn1)C(=O)N1CCC[C@H]1C(=O)N[C@@H](Cc1ccc(O)cc1)C(=O)N2 [BCY13582] | did not bind | 9 | three specific interactions | did not bind |  |  |
| CCCC[C@@H]1NC(=O)[C@H](Cc2ccc(O)cc2)NC(=O)[C@@H]2CCCN2C(=O)[C@H](CC(=O)O)NC(=O)[C@H](C)NC(=O)[C@H](Cc2ccccc2)NC(=O)[C@@H]2CSCCC(=O)N3CN(CN(C3)C(=O)CCSC[C@@H](C(=O)N[C@@H](C)C(N)=O)NC1=O)C(=O)CCSC[C@H](NC(C)=O)C(=O)N[C@@H](CC(C)(C)C)C(=O)N1CCC[C@H]1C(=O)N[C@@H](CCC(=O)O)C(=O)N[C@H](CCCCNC(=O)CCc1cn(CCOCCOCCOCCN(CCOCCOCCOCCC(=O)N[C@H]3CSCCC(=O)N4CN5CN(C4)C(=O)CCSC[C@H](NC(=O)[C@@H](CC(=O)O)NC(=O)[C@H](Cc4cccc6ccccc46)NC(=O)[C@@H]4CCCN4C3=O)C(=O)N[C@@H](CCSC)C(=O)N[C@@H](CCCCNC(=N)N)C(=O)N[C@@H](CC(=O)O)C(=O)N[C@@H](Cc3c[nH]c4ccccc34)C(=O)N[C@@H](CO)C(=O)N[C@@H]([C@@H](C)O)C(=O)N3CCC[C@H]3C(=O)N3C[C@H](O)C[C@H]3C(=O)N[C@@H](Cc3c[nH]c4ccccc34)C(=O)N[C@H](C(N)=O)CSCCC5=O)CCOCCOCCOCCn3cc(CCC(=O)NCCCC[C@H]4NC(=O)[C@H](CCC(=O)O)NC(=O)[C@@H]5CCCN5C(=O)[C@H](CC(C)(C)C)NC(=O)[C@@H](NC(C)=O)CSCCC(=O)N5CN6CN(C5)C(=O)CCSC[C@H](NC(=O)[C@H](Cc5ccc(O)cc5)NC(=O)[C@@H]5CCCN5C4=O)C(=O)N[C@@H](Cc4ccccc4)C(=O)N[C@@H](C)C(=O)N[C@@H](CC(=O)O)C(=O)N4CCC[C@H]4C(=O)N[C@@H](Cc4ccc(O)cc4)C(=O)N[C@@H](CCCC)C(=O)N[C@H](C(=O)N[C@@H](CCCCNC(=O)c4ccc(C(=O)O)c(-c5c7ccc(=N)c(S(=O)(=O)O)c-7oc7c(S(=O)(=O)O)c(N)ccc57)c4)C(N)=O)CSCCC6=O)nn3)nn1)C(=O)N1CCC[C@H]1C(=O)N[C@@H](Cc1ccc(O)cc1)C(=O)N2 [BCY13583] |  |  |  |  | 1.7 ± 0.9 | 0.84 ± 0.07 |

— patent publication US11306123B2, “Heterotandem bicyclic peptide complex” (BicycleTx Limited, priority 2019, dated 2022)
